Results from patent US20200080052A1, “METHOD OF REDUCING CHROMOSOME SEGREGATION ERROR IN CELLS OF THE EARLY EMBRYO” (CENTRE HOSPITALIER DE L'UNIVERSITÉ DE MONTRÉAL, priority 2018, published 2020).

Tested on: mouse embryos
Assay: Cytoplasmic removal and live imaging of H2B:RFP-GAP43:GFP embryos (mitosis duration vs cell volume)
Format: cell-based
Settings: 10 nM nocodazole
Experimental: All micromanipulations were performed on a Leica™ DM14000 inverted microscope fitted with Narashige micromanipulators. […] Embryos where thoroughly washed in over a dozen drops of M2 media prior to transfer and incubation in equilibrated KSOM medium for at least 2 hours prior to imaging to allow them to recover from the cytoplasmic removal procedure. Microinjections were performed as described previously (Nakagawa and FitzHarris, 2016; Vázquez-Diez and FitzHarris, 2018; Vázquez-Diez et al., 2016). cRNA was synthesized using mMessenger Machine kit (Ambion) as previously (Nakagawa et al., 2017; Vázquez-Diez et al., 2018), from the following plasmids; pRN4-H2B:RFP, psC2-GAP43:GFP, MajSatTALE:mClover (pTALYM3B15)(Miyanari et al., 2013).
All imaging was performed on a Leica™ SP8 confocal microscope with HyD detectors. For live imaging embryos were placed in a heated top-stage incubator with CO2 supply and imaged with a 20×0.75 NA objective as previously described (Vázquez-Diez et al., 2016). […]
All image analysis was performed using Fiji software. […] Mad2 Immunofluorescence was quantified by subtracting nuclear envelope and background maximum grey values. To calculate cell volume for each cell at metaphase, areas delineated by the cell membrane (GAP43:GFP signal) were manually traced and measured at each Z-slice, the sum of the areas was multiplied by the step size (2 μm). […]

SMILES: COC(=O)Nc1nc2ccc(C(=O)c3cccs3)cc2[nH]1 [nocodazole]
- correlation of mitosis duration and cell volume (r) (2-4C division, control r=−0.11): −0.17
- correlation of mitosis duration and cell volume (r) (16-32C division, control r=0.33): −0.24
